This is a selection; strong and weak results do not stand in their true shares. At the low end of the ranking, values are background and their order means little.

Amino acid sequences for entries named in this document (tags omitted). A change or cut given only in a name is not applied to a line headed by its entry.
UniProt P41212: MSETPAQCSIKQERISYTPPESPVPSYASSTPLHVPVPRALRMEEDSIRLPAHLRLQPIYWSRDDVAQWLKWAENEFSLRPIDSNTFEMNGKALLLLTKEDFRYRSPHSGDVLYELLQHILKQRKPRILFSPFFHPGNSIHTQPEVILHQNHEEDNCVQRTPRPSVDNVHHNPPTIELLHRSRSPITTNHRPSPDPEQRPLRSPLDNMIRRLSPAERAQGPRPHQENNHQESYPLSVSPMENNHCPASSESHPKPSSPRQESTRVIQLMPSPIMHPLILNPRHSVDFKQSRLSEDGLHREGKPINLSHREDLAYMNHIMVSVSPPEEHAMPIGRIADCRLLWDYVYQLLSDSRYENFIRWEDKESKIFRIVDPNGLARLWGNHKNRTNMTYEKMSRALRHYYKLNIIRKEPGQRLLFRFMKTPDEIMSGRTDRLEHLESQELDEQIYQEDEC

For 40 sequences, binding signal results are on record in article PMC7862700.

The test addresses ETV6 (UniProt P41212). Description: DAPPL (digital affinity profiling via proximity ligation, sequencing). Conditions: 10 mM Tris-HCl pH 7.5, 50 mM NaCl, 1 mM DTT, 4% glycerol, room temperature, 30 min; GST-TFs on glutathione beads, 16-mer random dsDNA library, 0.1% …; high values mean tight binding; double strand, one strand shown; scale: fold enrichment (6-mer frequency, TF over GST control).
With TCCAAA, the binding signal is 1.14.

With TCGAAC, the binding signal was determined as 1.

CTAACC returned a binding signal of 0.988.

As to GTGCTA, the binding signal is 0.983.

Regarding GAAAAT, the binding signal is 1.19.

In turn, TCATCC registered a binding signal of 1.38.

With AACCGC, the binding signal worked out at 1.19.

For the sequence CCCCTC, the binding signal is 1.28.

As for CGCCCC, the binding signal turned out to be 1.19.

On to CGTTTC, for which the binding signal was 1.95.

In turn, ACCCAC yielded a binding signal of 1.2.

Consider TGTTGA, for which the binding signal was found to be 1.01.

Sequence CTAACT came in with a binding signal of 1.29.

Sequence AGGCTT had a binding signal of 0.993.

With ATTATC, the binding signal came to 1.29.

The sequence TAGTTA gave a binding signal of 1.16.

TCCGGG gave a binding signal of 1.77.

TACAAC came in with a binding signal of 1.11.

TTTTCC returned a binding signal of 2.08.

For AAAACC, the binding signal came out at 1.19.

Sequence ACAAAA had a binding signal of 1.17.

In turn, ATTATA registered a binding signal of 1.3.

On to TCTCCT, for which the binding signal worked out at 1.44.

The sequence CAATTT returned a binding signal of 1.32.

In turn, AAGGCT showed a binding signal of 1.02.

Sequence TAGCAT returned a binding signal of 1.15.

Sequence TTCGGC showed a binding signal of 0.989.

The sequence GCAATT had a binding signal of 0.955.

In the case of CCGCTG, the binding signal was 1.11.

For the sequence CCACAT, the binding signal was 1.2.

As to ATGCGC, the binding signal came to 1.22.

In the case of TGATCA, the binding signal stood at 0.949.

Turning to CCAGAA, the binding signal was determined as 0.964.

TCGCTG: the binding signal amounted to 0.986.

With GGTTCT, the binding signal is 0.911.

Take TTAAGG: the binding signal stood at 1.06.

Turning to AGTGTC, the binding signal was 1.01.

In the case of TGACGG, the binding signal was determined as 0.964.

With CTGAAG, the binding signal is 1.05.

Sequence TTGCAG came in with a binding signal of 1.12.
